Results are given in words; binding and its absence hold for the method and conditions named. Binding seen in cells or lysates may run through a third protein. Some results given as binding are weak or reduced against the parent protein; the word gives no strength.
What was measured:
[1] = molecular target: HA-tagged M45 (murine cytomegalovirus M45 protein, full length, from pcDNA-M45-HA) (murine cytomegalovirus) (UniProt Q06A28); test: co-IP; rip1-/- MEFs transfected with HA-tagged M45 and Flag-tagged NEMO; IP anti-HA
[2] = molecular target: HA-tagged M45 (murine cytomegalovirus M45 protein, full length, from pcDNA-M45-HA) (murine cytomegalovirus) (UniProt Q06A28); test: co-IP; 293A cells co-transfected with HA-tagged M45 (full length or truncated) and Flag-tagged IKK subunits; IP anti-HA, immunoblot anti-Flag; lysis in 50 mM Tris-HCl pH 7.5, 150 mM NaCl, 1% Nonidet P-40
[3] = molecular target: HA-tagged M45 (murine cytomegalovirus M45 protein, full length, from pcDNA-M45-HA) (murine cytomegalovirus) (UniProt Q06A28); test: co-IP; 293A cells transfected with HA-tagged M45 or m143; IP anti-HA, immunoblot for endogenous NEMO, IKKα and IKKβ
[4] = molecular target: HA-tagged M45 expressed by the MCMV revertant virus RM45 (murine cytomegalovirus) (UniProt Q06A28); test: co-IP; NIH-3T3 cells infected for 4 hours with RM45 (MCMV expressing HA-tagged M45) at an MOI of 5; IP of lysates and immunoblot for the IKK subunits

Chains of the proteins cited; added tags and fusions are not shown.
UniProt Q06A28: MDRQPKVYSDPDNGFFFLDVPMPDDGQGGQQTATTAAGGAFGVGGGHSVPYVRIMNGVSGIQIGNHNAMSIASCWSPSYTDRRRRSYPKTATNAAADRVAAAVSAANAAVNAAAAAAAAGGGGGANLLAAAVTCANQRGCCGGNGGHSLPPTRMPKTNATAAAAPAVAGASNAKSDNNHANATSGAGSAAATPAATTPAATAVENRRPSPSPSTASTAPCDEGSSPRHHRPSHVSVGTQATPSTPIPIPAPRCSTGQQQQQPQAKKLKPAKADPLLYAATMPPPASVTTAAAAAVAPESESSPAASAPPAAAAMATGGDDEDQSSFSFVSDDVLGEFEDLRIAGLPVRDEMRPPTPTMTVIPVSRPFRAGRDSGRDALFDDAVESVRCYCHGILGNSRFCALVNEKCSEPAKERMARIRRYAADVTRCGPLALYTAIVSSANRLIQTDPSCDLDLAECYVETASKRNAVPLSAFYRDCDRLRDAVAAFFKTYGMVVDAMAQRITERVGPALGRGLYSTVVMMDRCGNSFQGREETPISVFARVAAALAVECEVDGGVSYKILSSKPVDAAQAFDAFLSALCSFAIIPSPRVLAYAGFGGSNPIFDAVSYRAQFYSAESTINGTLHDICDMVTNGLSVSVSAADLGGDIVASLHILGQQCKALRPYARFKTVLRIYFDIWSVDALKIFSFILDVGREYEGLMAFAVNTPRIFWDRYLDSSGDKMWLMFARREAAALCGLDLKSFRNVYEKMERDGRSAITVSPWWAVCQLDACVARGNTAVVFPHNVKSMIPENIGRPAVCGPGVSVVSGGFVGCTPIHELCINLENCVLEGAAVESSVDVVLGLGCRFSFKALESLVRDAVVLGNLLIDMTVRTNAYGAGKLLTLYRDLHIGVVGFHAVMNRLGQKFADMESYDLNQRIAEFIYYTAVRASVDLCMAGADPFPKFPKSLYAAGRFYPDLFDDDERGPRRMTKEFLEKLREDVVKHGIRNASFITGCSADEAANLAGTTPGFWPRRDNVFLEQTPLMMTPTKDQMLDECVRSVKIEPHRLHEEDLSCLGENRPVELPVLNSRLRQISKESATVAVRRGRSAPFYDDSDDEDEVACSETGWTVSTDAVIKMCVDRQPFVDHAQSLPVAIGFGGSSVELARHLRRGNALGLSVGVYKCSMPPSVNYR
UniProt Q9Y6K9: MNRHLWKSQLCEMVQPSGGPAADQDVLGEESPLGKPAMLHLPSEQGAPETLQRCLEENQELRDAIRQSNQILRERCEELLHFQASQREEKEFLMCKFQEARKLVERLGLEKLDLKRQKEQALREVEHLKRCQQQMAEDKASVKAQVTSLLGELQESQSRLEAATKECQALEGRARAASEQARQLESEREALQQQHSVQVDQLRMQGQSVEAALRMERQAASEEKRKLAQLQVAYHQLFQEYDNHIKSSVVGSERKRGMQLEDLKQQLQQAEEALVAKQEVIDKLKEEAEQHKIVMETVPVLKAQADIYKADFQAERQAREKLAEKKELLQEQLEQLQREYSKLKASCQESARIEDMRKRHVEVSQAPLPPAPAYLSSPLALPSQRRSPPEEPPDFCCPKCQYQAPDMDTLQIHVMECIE
UniProt O88522: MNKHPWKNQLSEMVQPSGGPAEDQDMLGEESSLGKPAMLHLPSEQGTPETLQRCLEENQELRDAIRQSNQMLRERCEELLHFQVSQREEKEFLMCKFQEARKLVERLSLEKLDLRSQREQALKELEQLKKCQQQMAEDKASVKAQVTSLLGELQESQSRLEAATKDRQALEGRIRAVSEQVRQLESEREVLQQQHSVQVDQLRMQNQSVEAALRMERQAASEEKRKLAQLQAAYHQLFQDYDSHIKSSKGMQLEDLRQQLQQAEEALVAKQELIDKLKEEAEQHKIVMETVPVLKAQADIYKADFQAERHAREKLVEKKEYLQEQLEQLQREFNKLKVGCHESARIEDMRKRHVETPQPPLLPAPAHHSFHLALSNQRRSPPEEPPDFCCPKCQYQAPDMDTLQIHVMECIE

Flag-tagged NEMO (from pCMVTAG-NEMO) (from UniProt Q9Y6K9 1-419)
binding [1]: binds
binding [2]: binds

endogenous NEMO of 293A cells (from UniProt Q9Y6K9 1-419)
binding [3]: binds

endogenous NEMO of NIH-3T3 cells (from UniProt O88522 1-412)
binding [4]: binds

From paper PMC3271075
